Measurements reported in article PMC11118108.
Results are given in words; binding and its absence hold for the method and conditions named. Binding seen in cells or lysates may run through a third protein. Some results given as binding are weak or reduced against the parent protein; the word gives no strength.

Chains of the proteins cited; added tags and fusions are not shown.
UniProt P46934: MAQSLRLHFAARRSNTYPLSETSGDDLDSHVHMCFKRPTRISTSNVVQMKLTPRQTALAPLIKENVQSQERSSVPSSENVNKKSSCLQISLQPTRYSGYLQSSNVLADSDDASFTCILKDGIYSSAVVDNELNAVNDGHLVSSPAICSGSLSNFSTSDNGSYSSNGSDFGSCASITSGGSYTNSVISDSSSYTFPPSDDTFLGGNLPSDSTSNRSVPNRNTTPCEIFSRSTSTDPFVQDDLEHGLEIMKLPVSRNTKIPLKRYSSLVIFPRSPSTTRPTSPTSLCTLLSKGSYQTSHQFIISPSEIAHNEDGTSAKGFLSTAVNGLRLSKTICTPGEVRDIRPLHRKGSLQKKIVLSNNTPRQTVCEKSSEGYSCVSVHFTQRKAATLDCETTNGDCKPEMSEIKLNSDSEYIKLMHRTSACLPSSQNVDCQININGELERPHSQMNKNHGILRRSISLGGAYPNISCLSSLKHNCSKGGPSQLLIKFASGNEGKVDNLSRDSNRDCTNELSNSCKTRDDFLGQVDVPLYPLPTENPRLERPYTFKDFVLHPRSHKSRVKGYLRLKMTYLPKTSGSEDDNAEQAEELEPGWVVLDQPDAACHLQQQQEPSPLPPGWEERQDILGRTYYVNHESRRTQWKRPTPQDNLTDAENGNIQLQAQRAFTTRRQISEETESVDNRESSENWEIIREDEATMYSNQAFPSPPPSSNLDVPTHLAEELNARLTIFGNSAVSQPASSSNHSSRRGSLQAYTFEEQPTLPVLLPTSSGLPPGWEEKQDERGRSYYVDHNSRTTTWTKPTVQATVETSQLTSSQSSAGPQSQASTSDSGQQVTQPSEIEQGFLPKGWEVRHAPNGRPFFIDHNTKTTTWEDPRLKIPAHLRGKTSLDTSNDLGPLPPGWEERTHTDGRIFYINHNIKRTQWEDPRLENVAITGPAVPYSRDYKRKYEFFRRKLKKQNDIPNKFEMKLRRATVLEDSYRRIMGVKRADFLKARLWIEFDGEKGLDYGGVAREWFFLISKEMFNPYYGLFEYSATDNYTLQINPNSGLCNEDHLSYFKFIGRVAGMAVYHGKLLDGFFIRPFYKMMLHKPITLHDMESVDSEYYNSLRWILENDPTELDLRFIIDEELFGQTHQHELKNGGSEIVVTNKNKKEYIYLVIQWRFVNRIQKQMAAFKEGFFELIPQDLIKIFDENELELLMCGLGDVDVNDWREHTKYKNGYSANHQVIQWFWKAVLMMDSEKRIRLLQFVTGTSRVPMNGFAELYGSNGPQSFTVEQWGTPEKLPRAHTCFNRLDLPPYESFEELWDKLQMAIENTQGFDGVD

Experiments:
[1] = biological target: T1, Methylcrotonyl-CoA Carboxylase Subunit 2 (human (endogenous in gastric cancer cell lines)) (UniProt Q9HCC0); assay: co-IP; total cell lysates incubated with primary antibody at 4 °C overnight, Protein A + G agarose, beads rinsed with PBS, detected by western blotting; precipitating antibody and cell line not stated
T1 sequence: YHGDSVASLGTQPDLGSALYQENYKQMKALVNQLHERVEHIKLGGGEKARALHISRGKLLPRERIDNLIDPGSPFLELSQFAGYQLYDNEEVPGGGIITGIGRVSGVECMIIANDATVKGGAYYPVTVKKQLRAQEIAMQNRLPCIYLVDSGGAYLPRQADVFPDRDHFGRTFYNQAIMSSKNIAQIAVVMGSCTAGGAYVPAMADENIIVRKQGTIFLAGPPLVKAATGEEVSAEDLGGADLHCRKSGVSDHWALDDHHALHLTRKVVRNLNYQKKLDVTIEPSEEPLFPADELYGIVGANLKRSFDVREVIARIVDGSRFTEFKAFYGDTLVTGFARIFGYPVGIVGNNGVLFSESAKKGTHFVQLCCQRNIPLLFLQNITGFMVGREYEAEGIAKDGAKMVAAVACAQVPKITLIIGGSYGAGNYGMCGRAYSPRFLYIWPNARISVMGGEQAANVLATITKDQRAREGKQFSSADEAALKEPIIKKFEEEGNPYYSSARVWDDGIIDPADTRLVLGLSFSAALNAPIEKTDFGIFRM

[2] = biological target: T2, Enoyl-CoA Hydratase Domain Containing 2 (human) (UniProt Q86YB7); assay: as above
T2 sequence: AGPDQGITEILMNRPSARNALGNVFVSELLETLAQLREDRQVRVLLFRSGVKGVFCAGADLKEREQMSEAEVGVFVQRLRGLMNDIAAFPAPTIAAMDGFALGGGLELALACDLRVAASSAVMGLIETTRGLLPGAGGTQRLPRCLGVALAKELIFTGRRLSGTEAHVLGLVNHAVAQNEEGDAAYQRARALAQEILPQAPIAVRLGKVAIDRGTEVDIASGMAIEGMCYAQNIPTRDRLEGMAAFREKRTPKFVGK

binding [2]: binds
Substance: E3 ubiquitin ligase NEDD4 (from UniProt P46934 1-1319) (enzyme)
binding [1]: binds
